Literature values, collected in patent publication US5004565A, “Method and compositions providing enhanced chemiluminescence from 1,2-dioxetanes” (priority 1988, dated 1991).
At least one structure is not confirmed: it was looked up by name or label, or the drawing left a doubt.

Conditions: thermal decomposition; cited from earlier work

SMILES: C1C2CC3CC1CC(C2)C31OOC12C1CC3CC(C1)CC2C3 (stereo not shown) [adamantylideneadamantane dioxetane]
- activation energy for decomposition: 37 kcal/mol
